Data published in patent US20160046678A1 (ZYNGENIA, published 2016).
No constants are given. Whether binding was seen depends on the method and setting. Some binding calls cover weakened binding; strength is not graded here.

Target: EGFR (UniProt P00533)
Assay: peptide screen, Example 48

binding, binds:
IHEGCWWSSWGKECLLLP [EGA824]
LPEGCWWSAWGRECILLQ [EGA864]
LPDSCWWSTWGRECILLP [EGA834]
IPEGCWWQPWALECFLLP [EGA878]
LATPCYWTTWGKECLIPR [EGA870]
VPQGCYWATWGRECYLLP [EGA833]
LPEPCYWTTWGKECHLPN [EGA880]
LPAPCYWTTWGKECFLLR [EGA861]
LSSPCYWTTWGKECFIIR [EGA849]
LPDGCYWTTWGKECFMPR [EGA841]
LPPRCLWNPWGPECFLIH [EGA881]
LPAGCYWANWGKECFLVP [EGA826]
LPQGCYWAVWGRECLLLP [EGA854]
LNEHCYWALWGKECFLPR [EGA837]
LPAGCWWSLWGKECYLLP [EGA855]
ISQGCWWSKWGRECLLPP [EGA885]
LPAGCWWSVWGRECLLMP [EGA857]
LPEGCWWTQWGKECHLAP [EGA873]
LAEGCIWTTWGRECFLLP [EGA820]
LRDPCWWAVWGRECILLP [EGA822]
INPPCYWTTWGKECFLHR [EGA872]
LPEGCWWSVWGKECLMLP [EGA869]
LPDPCWWAPWGRECVLMP [EGA859]
LLLGCSWHFWVYECLPPP [EGA871]
LTPPCYWTIWGKECFMRQ [EGA843]
LPEGCYWSVWGKECLLES [EGA844]
LPEGCWWSPWGRECLLLP [EGA838]
LPDGCYWTVWGRECFLPP [EGA821]
YADHCRLFPNDWICTLIT [EGA890]
RPDSCYWTTWGRECLWPR [EGA883]
LPEGCFWTVWGKECLLMP [EGA840]
LPEGCWWATWGRECLLEP [EGA825]
LSGGCYWTTWGRECILLP [EGA848]
LPEECWWAIWGRECHLLP [EGA856]
LMGDCWWTVWGKECLLQP [EGA865]
LPERCWWAIWGRECILLP [EGA884]
LTAPCWWTSWGRECYLFG [EGA882]
LPAPCYWTTWGKECLMPR [EGA831]
VPDSCWWSQWGRECLLPP [EGA868]
LPEGCWWAPWGKECLLSP [EGA830]
LPEPCYWTTWGKECFMIH [EGA853]
LPDGCYWSMWGRECFLVP [EGA832]
MPEGCFWAIWGRECFLLP [EGA858]
LQEGCFWAVWGKECILLP [EGA836]
IPDGCYWAIWGRECFLLP [EGA860]
LTDQCYWATWGRECILLR [EGA846]
FPAGCYWAHWGRECLLLP [EGA874]
LPEGCYWAIWGKECHMTP [EGA876]
LPEDCWWAIWGRECLLTP [EGA852]
LTDSCYWTTWGRECFLIP [EGA862]
IHDPCYWTVWGRECLLLP [EGA863]
IAEGCWWSIWGKECFLLP [EGA879]
LPAPCYWTTWGKECLLQH [EGA835]
YAEHCWRFPSDWICTLMT [EGA889]
LPEGCWWSIWGKECLLLP [EGA875]
QSPGCWWAVWGVECILLP [EGA823]
LTDPCYWTTWGKECLLHR [EGA828]
YAQHCYLFPMDWICTLTT [EGA891]
FPDGCYWAIWGRECLLQP [EGA847]
FPEGCWWALWGKECFLQP [EGA850]
YPEHCWWFPSDWICTLMT [EGA888]
LPDGCWWSVWGRECLMLP [EGA851]
IPHGCWWAIWGRECLLLP [EGA886]
LPEGCWWSPWGKECLLMP [EGA842]
